Experimental data: PubChem BioAssay AID1508597 (Cure First, 2020)

Screen: 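Genes whose silencing sensitises or protects ovarian cancer cells against rucaparib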 (primary screen)
Cell system: human ovarian carcinoma lines grown from tumours: OCI-P5x (papillary serous) and OCI-C5x (clear cell)
Knock-down reagent: siRNA pool against human genes, 1.25 pmol siRNA per well
Timing: 72 h or 96 h, depending on the cell culture
Conditions: rucaparib 20 µM (about IC30) or vehicle, present until read-out
Read-out: 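ATP luminescence measured at 72 or 96 h according to the culture, then normalised and expressed as percent viability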
Scale: viability, normalised: higher = more viable cells remaining
Hit rule: 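Active when normalised viability falls below 80 percent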
Calls: active = viability under 80%; inactive = viability 80% or more
In all, the deposit lists about 2,100 reagents; this is a part drawn at random. 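Calls flag viability under 80% in either arm, not effects specific to rucaparib; the reference for percent is not stated.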 A number with no mark means an inactive call. The record does not give: the 100% reference.

{"gene":"LATS2","rucaparib or vehicle":"Rucaparib","cell line":"OCI-C5x (clear cell)","technical replicate":"1","viability, normalised (%)":"54.4 (active)"}
{"gene":"LATS2","rucaparib or vehicle":"Rucaparib","cell line":"OCI-C5x (clear cell)","technical replicate":"2","viability, normalised (%)":"64.3 (active)"}
{"gene":"LATS2","rucaparib or vehicle":"Rucaparib","cell line":"OCI-C5x (clear cell)","technical replicate":"3","viability, normalised (%)":"63.6 (active)"}
{"gene":"LATS2","rucaparib or vehicle":"Rucaparib","cell line":"OCI-P5x (serous)","technical replicate":"1","viability, normalised (%)":108}
{"gene":"LATS2","rucaparib or vehicle":"Rucaparib","cell line":"OCI-P5x (serous)","technical replicate":"2","viability, normalised (%)":110}
{"gene":"LATS2","rucaparib or vehicle":"Rucaparib","cell line":"OCI-P5x (serous)","technical replicate":"3","viability, normalised (%)":110}
{"gene":"LATS2","rucaparib or vehicle":"Vehicle","cell line":"OCI-C5x (clear cell)","technical replicate":"1","viability, normalised (%)":"56.5 (active)"}
{"gene":"LATS2","rucaparib or vehicle":"Vehicle","cell line":"OCI-C5x (clear cell)","technical replicate":"2","viability, normalised (%)":"62.6 (active)"}
{"gene":"LATS2","rucaparib or vehicle":"Vehicle","cell line":"OCI-C5x (clear cell)","technical replicate":"3","viability, normalised (%)":"60 (active)"}
{"gene":"LATS2","rucaparib or vehicle":"Vehicle","cell line":"OCI-P5x (serous)","technical replicate":"1","viability, normalised (%)":83.8}
{"gene":"LATS2","rucaparib or vehicle":"Vehicle","cell line":"OCI-P5x (serous)","technical replicate":"2","viability, normalised (%)":"68.9 (active)"}
{"gene":"LATS2","rucaparib or vehicle":"Vehicle","cell line":"OCI-P5x (serous)","technical replicate":"3","viability, normalised (%)":81.6}
{"gene":"ACVR1C","rucaparib or vehicle":"Rucaparib","cell line":"OCI-C5x (clear cell)","technical replicate":"1","viability, normalised (%)":"74.2 (active)"}
{"gene":"ACVR1C","rucaparib or vehicle":"Rucaparib","cell line":"OCI-C5x (clear cell)","technical replicate":"2","viability, normalised (%)":"75.4 (active)"}
{"gene":"ACVR1C","rucaparib or vehicle":"Rucaparib","cell line":"OCI-C5x (clear cell)","technical replicate":"3","viability, normalised (%)":"72 (active)"}
{"gene":"ACVR1C","rucaparib or vehicle":"Rucaparib","cell line":"OCI-P5x (serous)","technical replicate":"1","viability, normalised (%)":123}
{"gene":"ACVR1C","rucaparib or vehicle":"Rucaparib","cell line":"OCI-P5x (serous)","technical replicate":"2","viability, normalised (%)":123}
{"gene":"ACVR1C","rucaparib or vehicle":"Rucaparib","cell line":"OCI-P5x (serous)","technical replicate":"3","viability, normalised (%)":106}
{"gene":"ACVR1C","rucaparib or vehicle":"Vehicle","cell line":"OCI-C5x (clear cell)","technical replicate":"1","viability, normalised (%)":90.2}
{"gene":"ACVR1C","rucaparib or vehicle":"Vehicle","cell line":"OCI-C5x (clear cell)","technical replicate":"2","viability, normalised (%)":"73.1 (active)"}
{"gene":"ACVR1C","rucaparib or vehicle":"Vehicle","cell line":"OCI-C5x (clear cell)","technical replicate":"3","viability, normalised (%)":84.7}
{"gene":"ACVR1C","rucaparib or vehicle":"Vehicle","cell line":"OCI-P5x (serous)","technical replicate":"1","viability, normalised (%)":101}
{"gene":"ACVR1C","rucaparib or vehicle":"Vehicle","cell line":"OCI-P5x (serous)","technical replicate":"2","viability, normalised (%)":89.3}
{"gene":"ACVR1C","rucaparib or vehicle":"Vehicle","cell line":"OCI-P5x (serous)","technical replicate":"3","viability, normalised (%)":102}
{"gene":"TNNI3K","rucaparib or vehicle":"Rucaparib","cell line":"OCI-C5x (clear cell)","technical replicate":"1","viability, normalised (%)":"63.6 (active)"}
{"gene":"TNNI3K","rucaparib or vehicle":"Rucaparib","cell line":"OCI-C5x (clear cell)","technical replicate":"2","viability, normalised (%)":"61.8 (active)"}
{"gene":"TNNI3K","rucaparib or vehicle":"Rucaparib","cell line":"OCI-C5x (clear cell)","technical replicate":"3","viability, normalised (%)":"67.7 (active)"}
{"gene":"TNNI3K","rucaparib or vehicle":"Rucaparib","cell line":"OCI-P5x (serous)","technical replicate":"1","viability, normalised (%)":83.2}
{"gene":"TNNI3K","rucaparib or vehicle":"Rucaparib","cell line":"OCI-P5x (serous)","technical replicate":"2","viability, normalised (%)":"68.4 (active)"}
{"gene":"TNNI3K","rucaparib or vehicle":"Rucaparib","cell line":"OCI-P5x (serous)","technical replicate":"3","viability, normalised (%)":83.4}
{"gene":"TNNI3K","rucaparib or vehicle":"Vehicle","cell line":"OCI-C5x (clear cell)","technical replicate":"1","viability, normalised (%)":"57 (active)"}
{"gene":"TNNI3K","rucaparib or vehicle":"Vehicle","cell line":"OCI-C5x (clear cell)","technical replicate":"2","viability, normalised (%)":"60.7 (active)"}
{"gene":"TNNI3K","rucaparib or vehicle":"Vehicle","cell line":"OCI-C5x (clear cell)","technical replicate":"3","viability, normalised (%)":"44.8 (active)"}
{"gene":"TNNI3K","rucaparib or vehicle":"Vehicle","cell line":"OCI-P5x (serous)","technical replicate":"1","viability, normalised (%)":"69 (active)"}
{"gene":"TNNI3K","rucaparib or vehicle":"Vehicle","cell line":"OCI-P5x (serous)","technical replicate":"2","viability, normalised (%)":"75.6 (active)"}
{"gene":"TNNI3K","rucaparib or vehicle":"Vehicle","cell line":"OCI-P5x (serous)","technical replicate":"3","viability, normalised (%)":91.9}

Not a retest: an excerpt of the list.
{"gene":"LATS2","rucaparib or vehicle":"Vehicle","cell line":"OCI-P5x (serous)","technical replicate":"2","viability, normalised (%)":"68.9 (active)"}
{"gene":"LATS2","rucaparib or vehicle":"Vehicle","cell line":"OCI-P5x (serous)","technical replicate":"3","viability, normalised (%)":81.6}
{"gene":"ACVR1C","rucaparib or vehicle":"Rucaparib","cell line":"OCI-C5x (clear cell)","technical replicate":"1","viability, normalised (%)":"74.2 (active)"}
